Among the data in paper PMC7229849 are binding values, retold here.

Amino acid sequences for entries named in this document (tags omitted). A change or cut given only in a name is not applied to a line headed by its entry. Chains listed by the source or under a name are the forms on record and can include a tag or linker.
Tcf4L (long isoform of Tcf4), myc-tagged (P15884-3, form named): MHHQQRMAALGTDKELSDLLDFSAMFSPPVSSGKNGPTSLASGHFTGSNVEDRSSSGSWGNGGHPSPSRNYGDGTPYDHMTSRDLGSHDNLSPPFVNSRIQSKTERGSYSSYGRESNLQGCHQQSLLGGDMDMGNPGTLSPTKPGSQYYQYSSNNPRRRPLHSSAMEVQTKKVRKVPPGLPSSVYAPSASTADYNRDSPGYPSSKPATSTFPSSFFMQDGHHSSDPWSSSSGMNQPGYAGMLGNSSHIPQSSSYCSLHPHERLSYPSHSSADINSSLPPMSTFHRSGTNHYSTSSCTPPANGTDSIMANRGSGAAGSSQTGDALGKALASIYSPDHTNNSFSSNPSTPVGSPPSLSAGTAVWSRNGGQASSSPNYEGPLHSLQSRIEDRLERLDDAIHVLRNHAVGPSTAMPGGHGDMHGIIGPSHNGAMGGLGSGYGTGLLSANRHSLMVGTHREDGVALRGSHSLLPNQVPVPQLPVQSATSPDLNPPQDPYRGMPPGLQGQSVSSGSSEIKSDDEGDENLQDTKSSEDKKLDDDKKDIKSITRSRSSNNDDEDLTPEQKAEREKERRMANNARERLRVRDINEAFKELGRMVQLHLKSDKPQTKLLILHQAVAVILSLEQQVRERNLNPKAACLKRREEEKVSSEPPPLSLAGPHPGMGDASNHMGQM

These are yes or no findings as the source states them, for the method shown. In cells and extracts the contact can be indirect. Some binding calls cover weakened binding; strength is not graded here. Where a sequence is shown, tags or fusion partners need not be part of it.

Experiment [1] has as its target T1, Olig2 (UniProt Q9EQW6).
T1 sequence: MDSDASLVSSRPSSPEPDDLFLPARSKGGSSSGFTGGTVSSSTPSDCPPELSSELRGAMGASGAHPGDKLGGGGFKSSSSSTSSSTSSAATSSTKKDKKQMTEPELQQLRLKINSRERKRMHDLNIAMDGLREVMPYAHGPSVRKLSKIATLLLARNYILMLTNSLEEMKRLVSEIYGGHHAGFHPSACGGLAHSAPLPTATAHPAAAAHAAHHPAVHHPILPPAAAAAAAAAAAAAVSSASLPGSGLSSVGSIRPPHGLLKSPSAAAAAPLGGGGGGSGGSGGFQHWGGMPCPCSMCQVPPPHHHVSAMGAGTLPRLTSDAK
Nature of the experiment: co-IP; the same extracts of transfected Hek293 cells; precipitation with rabbit anti-Olig2 antiserum and protein A sepharose; western blot with anti-myc monoclonal. (In general: In western blotting, separated proteins are transferred to a membrane and probed.)

Experiment [2] has as its target T2, Ascl1, T7-tagged (UniProt Q02067).
T2 sequence: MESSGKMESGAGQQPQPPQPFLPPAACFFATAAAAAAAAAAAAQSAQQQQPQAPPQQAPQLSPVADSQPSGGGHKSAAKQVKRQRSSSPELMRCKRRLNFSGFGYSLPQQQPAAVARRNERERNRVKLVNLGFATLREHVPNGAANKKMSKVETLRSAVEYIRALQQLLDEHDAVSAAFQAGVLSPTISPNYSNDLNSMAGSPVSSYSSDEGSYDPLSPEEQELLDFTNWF
Description: co-IP; extracts of transfected Hek293 cells with T7-tagged Olig1 or T7-tagged Ascl1 alone or with one myc-tagged class I bHLH protein; precipitation with mouse anti-T7 monoclonal and protein A sepharose; western blot with anti-myc monoclonal.

Experiment [3] has as its target T3, Olig1, T7-tagged (UniProt Q9WUQ3).
T3 sequence: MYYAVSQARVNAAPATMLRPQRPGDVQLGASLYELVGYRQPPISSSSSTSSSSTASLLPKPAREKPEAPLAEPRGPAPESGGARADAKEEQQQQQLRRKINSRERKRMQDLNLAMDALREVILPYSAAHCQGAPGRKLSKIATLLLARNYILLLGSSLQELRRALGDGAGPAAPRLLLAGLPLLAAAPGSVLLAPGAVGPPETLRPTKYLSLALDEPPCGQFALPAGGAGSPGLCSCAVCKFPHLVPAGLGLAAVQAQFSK
The description is as above.

Consider “Tcf4L (long isoform of Tcf4), myc-tagged (from UniProt P15884-3 1-671)”, for which the binding result in experiment [1], in experiment [2] and in experiment [3] was “binds” each time.

As for “Tcf12, myc-tagged (from UniProt P51514-1 1-707)”, the binding entry in experiment [2] and in experiment [3] was “binds” in each case.

B1: Tcf3, myc-tagged (protein, UniProt P15806-2 1-648)
chain: MMNQSQRMAPVGSDKELSDLLDFSMMFPLPVANGKSRPASLGGTQFAGSGLEDRPSSGSWGSSDQNSSSFDPSRTYSEGAHFSDSHSSLPPSTFLGAGLGGKGSERNAYATFGRDTSVGTLSQAGFLPGELSLSSPGPLSPSGIKSSSQYYPSFPSNPRRRAADGGLDTQPKKVRKVPPGLPSSVYPPSSGDSYSRDAAAYPSAKTPSSAYPSPFYVADGSLHPSAELWSTPSQVGFGPMLGDGSSPLPLAPGSSSVGSGTFGGLQQQDRMGYQLHGSEVNGSLPAVSSFSAAPGTYSGTSGHTPPVSGAAAESLLGTRGTTASSSGDALGKALASIYSPDHSSNNFSPSPSTPVGSPQGLPGTSQWPRAGAPSALSPNYDAGLHGLSKMEDRLDEAIHVLRSHAVGTASDLHGLLPGHGALTTSFTGPMSLGGRHAGLVGGSHPEEGLTSGASLLHNHASLPSQPSSLPDLSQRPPDSYSGLGRAGTTAGASEIKREEKEDEEIASVADAEEDKKDLKVPRTRTSSTDEVLSLEEKDLRDRERRMANNARERVRVRDINEAFRELGRMCQLHLKSDKAQTKLLILQQAVQVILGLEQQVRERNLNPKAACLKRREEEKVSGVVGDPQLALSAAHPGLGEAHNPAGHL
As to B1, the binding entry in experiment [1] and in experiment [3] was “binds” throughout.
